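Luminescence from an EWS-FLI1 target-promoter (NR0B1) reporter, set against a CMV-promoter reporter, two days after silencing single genes in TC32 Ewing sarcoma cells. Each siRNA was applied at 20 nM. A z-score of the log NR0B1-over-CMV signal, less the median of siRNAs with the same seed; more negative means a stronger specific loss of the NR0B1 reporter.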

The strongest results of the screen are mostly left out here. Sequences are the guide (antisense) strand, without overhang.

| siRNA | gene | seed-corrected z-score |
|---|---|---|
| `UCUCAUCCUCUCAAAAUCC` | COL6A4P2 | -0.425 |
| `UAUUUUGUAGGUAAGUCCU` | BET1L | 0.1513 |
| `UAACCCAUUAUUUGAAAUC` | OR4D9 | 0.1997 |
| `UAUAUGUAUACACGUGCUC` | ZNF586 | 0.175 |
| `UUUCGAUUUUCAUAAAGCC` | MMP21 | 0.87 |
| `UCCUUUUUCACGGUGACUG` | TCF7L1 | -0.1706 |
| `UUUCAUCCCACAUUUGCGG` | UBE2L3 | 0.1601 |
| `AACGGUUGAAGUGAGAUGA` | PLD4 | -0.05747 |
| `AUAAGUUCUAGAGUCUCUG` | MYBL1 | 0.1381 |
| `UUCCAUAUCUCUCUUUAGC` | DARS | 0.09071 |
| `UAGCGUAGUACUGAGAGGG` | ZMYND10 | -0.1238 |
| `UAGAGUCUUACAGCAGUCC` | NAT10 | -0.1873 |
| `UCUCGUGAAAUUCUUCUCC` | VPS41 | 0.2139 |
| `UGCUUGCUCACAGACAUUC` | KPNA4 | 3.363 |
| `UAUAGUUCCAGAAAGUAGG` | TMEM209 | -0.4387 |
| `UCAGAGUGGAUUCCAUCCC` | SAMD14 | -0.9775 |
| `UUAGUUCAUAAUAGAAUGG` | REEP1 | -0.04495 |
| `AAUGUUUUCUCACACUCGC` | ZFP3 | -1.989 |
| `UACUCUUCUCAAGGCAUUC` | RFC5 | 0.08537 |
| `AAUUGUCAAAAAUUCCUUG` | CD244 | 1.163 |
| `AAGUUGACGAUAUAUGUCC` | HAUS3 | -1.292 |
| `AUACGAGAAAGAUUGAAGC` | C10orf2 | 0.06518 |
| `UCAUUUCGCAGGCACACCC` | PAGE1 | 1.857 |
| `ACAUUAACCAGGGACAUGU` | LMF1 | 0.3411 |
| `UAACUUGUAGUGAGUGCCG` | EBF2 | 0.201 |
| `UUUCGGCAAAGGUAGUAAC` | MED12L | 0.09395 |
| `UGUUUGGAAACCUAAAAUG` | C4orf26 | 0.5905 |
| `UUUGUUGACAUAGAUACUA` | OR8G1 | 1.243 |
| `UUCCCUUUUCUUUCGGAGC` | HHIP-AS1 | -0.598 |
| `UUUAGCUUUUAGUAAGUCC` | CDK12 | -0.04516 |
| `UCAAAUCUAACUCUCUCCG` | ANKS3 | 1.189 |
| `UAUCAGGUAAAACUCGCUC` | ABCA10 | -0.2112 |
| `UUGUCAAUCUCCGAUGUAC` | CRTAM | -0.1452 |
| `ACAACGGUGACAGAGCUGG` | PTPRCAP | -0.5249 |
| `UACACGACGAUGUGCUUGC` | CPT1A | -0.5467 |
| `AUAGGUCUCAAAGUGGUUG` | WFIKKN2 | -0.7619 |
| `UUACCGUCCACGUCGUAGA` | RCVRN | -0.2071 |
| `AAUCUUUCUUGUGACGAUC` | ZNF75A | 0.569 |
| `UUGGUACUUAGCUCUAGGC` | CHUK | -0.1403 |
| `ACGAUAAUAAGUCUUCUGC` | IL1RAPL2 | 0.8517 |
| `UGAAUAAAAAGAACUGGGC` | OR9I1 | 1.091 |
| `UCAGCAACCACAGGUAGCU` | PSG6 | -0.1217 |
| `UCUGAGUCACGAGAUAUGA` | ARHGEF35 | 1.175 |
| `UAGGAUGUACGCUCCACUC` | ZXDA | -0.02139 |
| `UUUCUUCUCAGUCCGGGAC` | LOC339192 | 1.349 |
| `UCACAAUCCAGGACAGUUC` | BDH2 | 0.3244 |
| `AACAUGGACAUCGGGAUGG` | ATP8B3 | 0.2396 |
| `AAGUGGACCAGAAAGGUAC` | UNC93A | -0.9873 |
| `UAGCCUGUGAUAUCCACUG` | THAP7 | 0.5984 |
| `AACCUUCUUCCCGAAAAGC` | OPN1MW | 0.3281 |
| `UUUCCUCUGGACGCACUCC` | LINC00935 | -1.601 |
| `UAUCGAGACAAAUACUUCC` | UBE2D1 | -0.05245 |
| `UGCACAUUCACGUAGCCAG` | ZDHHC12 | 0.08311 |
| `UCAGAGUUAAUCGAGAUAC` | RWDD3 | 0.9211 |
| `UUCCCGGUAAGUAACUUCC` | ATP5F1 | 0.2189 |
| `UGACUAUCACUUCCCAAGC` | PCNX1 | 0.3613 |
| `AAUCUAUCUUCAAACUUCC` | FAM13A | -0.3436 |

Once more, the final 5:

{"sirna": "UGCACAUUCACGUAGCCAG", "gene": "ZDHHC12", "seed-corrected z-score": "0.08311"}
{"sirna": "UCAGAGUUAAUCGAGAUAC", "gene": "RWDD3", "seed-corrected z-score": "0.9211"}
{"sirna": "UUCCCGGUAAGUAACUUCC", "gene": "ATP5F1", "seed-corrected z-score": "0.2189"}
{"sirna": "UGACUAUCACUUCCCAAGC", "gene": "PCNX1", "seed-corrected z-score": "0.3613"}
{"sirna": "AAUCUAUCUUCAAACUUCC", "gene": "FAM13A", "seed-corrected z-score": "-0.3436"}

From PubChem BioAssay record AID1159506 (NCATS, 2015).